The values below come from article PMC3299683.

These are yes or no findings as the source states them, for the method shown. Binding seen in cells or lysates may run through a third protein. Binding can be weak; no strength is given.

The assay deals with HA-TβRIII (type III TGF-β receptor). Briefly: co-IP; HA-TβRIII-stably expressing 4T07 mouse mammary cancer cells treated with TGF-β and LPS for one hour; IP anti-HA, endogenous TRAF6 detected.

B1: endogenous TRAF6 (4T07 mouse mammary tumor cells) (protein, UniProt P70196 1-530)
chain: MSLLNCENSCGSSQSSSDCCAAMAASCSAAVKDDSVSGSASTGNLSSSFMEEIQGYDVEFDPPLESKYECPICLMALREAVQTPCGHRFCKACIIKSIRDAGHKCPVDNEILLENQLFPDNFAKREILSLTVKCPNKGCLQKMELRHLEDHQVHCEFALVNCPQCQRPFQKCQVNTHIIEDCPRRQVSCVNCAVSMAYEEKEIHDQSCPLANIICEYCGTILIREQMPNHYDLDCPTAPIPCTFSVFGCHEKMQRNHLARHLQENTQLHMRLLAQAVHNVNLALRPCDAASPSRGCRPEDPNYEETIKQLESRLVRQDHQIRELTAKMETQSMYVGELKRTIRTLEDKVAEMEAQQCNGIYIWKIGNFGMHLKSQEEERPVVIHSPGFYTGRPGYKLCMRLHLQLPTAQRCANYISLFVHTMQGEYDSHLPWPFQGTIRLTILDQSEALIRQNHEEVMDAKPELLAFQRPTIPRNPKGFGYVTFMHLEALRQGTFIKDDTLLVRCEVSTRFDMGGLRKEGFQPRSTDAGV
As for B1, the binding result is listed as “binds”.
